Reference: publication PMC4995487, “Tyrosine phosphorylation and protein degradation control the transcriptional activity of WRKY involved in benzylisoquinoline alkaloid biosynthesis”
Numbering of substitutions follows the chain as printed. A weaker result is weaker than the reference pair of the same experiment. Where a protein sequence is shown, tags need not be part of it.

Legend:
Test in all cases: EMSA
[1] = molecular target: T1, GST-CjWRKY1 Y115F (Coptis japonica) (UniProt A0ZT25); conditions: 0.05 ug/ul poly(dI-dC), 1 mM MgCl2, higher than Y115E, EMSA: 20 fmol biotin probe, 3 ug protein, 1x LightShift binding buffer, 1 mM MgCl2, 0.5 mM EDTA, 20 min at 4 C, 5% polyacrylamide gel, recombinant protein, residues 1-185, protein details: N-terminal GST (pGEX-6P-1), label: biotin
T1 sequence (looked up): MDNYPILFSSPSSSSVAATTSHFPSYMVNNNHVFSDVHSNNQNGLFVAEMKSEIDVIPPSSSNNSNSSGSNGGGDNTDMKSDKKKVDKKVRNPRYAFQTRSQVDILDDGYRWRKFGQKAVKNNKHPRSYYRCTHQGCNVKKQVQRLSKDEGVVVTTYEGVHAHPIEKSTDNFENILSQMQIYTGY

[2] = molecular target: T2, GST-CjWRKY1 Y115L (Coptis japonica) (UniProt A0ZT25); conditions: 0.05 ug/ul poly(dI-dC), 1 mM MgCl2, higher than Y115E, EMSA: 20 fmol biotin probe, 3 ug protein, 1x LightShift binding buffer, 1 mM MgCl2, 0.5 mM EDTA, 20 min at 4 C, 5% polyacrylamide gel, recombinant protein, residues 1-185, protein details: N-terminal GST (pGEX-6P-1), label: biotin
T2 sequence (looked up): T1 sequence (looked up) with F115L

[3] = molecular target: T3, GST-CjWRKY1 Y115E (Coptis japonica) (UniProt A0ZT25); conditions: 0.05 ug/ul poly(dI-dC), 1 mM MgCl2, lowest of the mutants, EMSA: 20 fmol biotin probe, 3 ug protein, 1x LightShift binding buffer, 1 mM MgCl2, 0.5 mM EDTA, 20 min at 4 C, 5% polyacrylamide gel, recombinant protein, residues 1-185, protein details: N-terminal GST (pGEX-6P-1), label: biotin
T3 sequence (looked up): T1 sequence (looked up) with F115E

Measured: binding result

CTGCTGACTAGCTGACTAGCTGACTAGATGG (double strand) [3x W-box probe (CYP80B2 promoter)]
binds more weakly: all assays above
